A: 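Cell assay of Leishmania donovani living inside macrophages; the read-out is not stated. Compounds at 30 µM. Direction is inferred from retests: higher values go with stronger inhibition. About 69,000 compounds were tested under these conditions; 1.5% (about 1,000) showed 50% or more at least once.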
B: 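Histidine-tRNA ligase, Trypanosoma cruzi CL Brener (UniProt Q4DA54). Enzyme assay of histidyl-tRNA synthetase; the read-out is not stated. Compounds at 30 µM. Direction is inferred from retests: higher values go with stronger inhibition. Of about 69,000 compounds tested this way, about 31 (0.045%) reached 50% or more in at least one test.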
C: 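Protease assay of ClpP1P2, read by the AMC dye that it sets free. Target: ClpP1P2, Mycobacterium tuberculosis (UniProt P9WPC5 and UniProt P9WPC3). Concentration: 50 µM. Higher reads as stronger inhibition, judged from the few compounds that gave an IC50. Most other retested compounds had strongly negative values. Size under these conditions: about 69,000 compounds, about 10 of them at 50% or above in at least one test.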
D: 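Assay of Toxoplasma gondii numbers, read through their beta-galactosidase reporter with a colour substrate. Tested at 10 µM. The record gives no direction; the compounds picked for IC50 retests had high values, so higher reads as fewer parasites. About 67,000 compounds were tested under these conditions; 0.38% (about 260) showed 50% or more at least once.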
E: 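Enzyme assay of the cytosolic lysyl-tRNA synthetase in 384-well plates, read by luminescence. Target: Lysine-tRNA ligase, Plasmodium falciparum 3D7 (UniProt Q8IDJ8). Concentration: 30 µM. Direction is inferred from only a few compounds that gave an IC50; most scored high, so higher reads as stronger inhibition. Size under these conditions: about 69,000 compounds, about 49 of them at 50% or above in at least one test.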

Chains of the proteins cited; added tags and fusions are not shown. Residues count along the entry.
UniProt Q4DA54, 1-478: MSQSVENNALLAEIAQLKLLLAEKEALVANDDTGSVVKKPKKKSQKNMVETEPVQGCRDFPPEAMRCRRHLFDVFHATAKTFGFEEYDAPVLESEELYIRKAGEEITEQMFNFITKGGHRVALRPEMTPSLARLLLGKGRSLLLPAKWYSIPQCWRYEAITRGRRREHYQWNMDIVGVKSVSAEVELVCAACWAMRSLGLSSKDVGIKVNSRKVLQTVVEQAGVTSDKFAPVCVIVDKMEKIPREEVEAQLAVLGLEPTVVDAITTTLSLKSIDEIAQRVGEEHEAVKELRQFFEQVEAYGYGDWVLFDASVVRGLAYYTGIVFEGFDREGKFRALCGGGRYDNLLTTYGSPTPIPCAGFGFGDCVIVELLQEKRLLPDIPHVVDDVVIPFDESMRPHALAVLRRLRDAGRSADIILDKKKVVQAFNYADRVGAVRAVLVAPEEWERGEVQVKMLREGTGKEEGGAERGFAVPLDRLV
UniProt P9WPC5, whole entry: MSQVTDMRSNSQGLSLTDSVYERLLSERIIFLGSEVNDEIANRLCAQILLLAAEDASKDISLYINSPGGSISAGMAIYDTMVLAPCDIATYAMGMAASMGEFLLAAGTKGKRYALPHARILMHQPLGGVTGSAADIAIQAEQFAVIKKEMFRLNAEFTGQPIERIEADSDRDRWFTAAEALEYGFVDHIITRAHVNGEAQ
UniProt P9WPC3, whole entry partner: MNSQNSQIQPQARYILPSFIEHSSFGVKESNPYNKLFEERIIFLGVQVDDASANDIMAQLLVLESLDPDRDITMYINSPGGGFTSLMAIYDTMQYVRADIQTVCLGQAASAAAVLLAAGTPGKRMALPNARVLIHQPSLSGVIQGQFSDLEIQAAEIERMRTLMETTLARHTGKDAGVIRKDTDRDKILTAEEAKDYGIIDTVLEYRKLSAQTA
UniProt Q8IDJ8, 1-583: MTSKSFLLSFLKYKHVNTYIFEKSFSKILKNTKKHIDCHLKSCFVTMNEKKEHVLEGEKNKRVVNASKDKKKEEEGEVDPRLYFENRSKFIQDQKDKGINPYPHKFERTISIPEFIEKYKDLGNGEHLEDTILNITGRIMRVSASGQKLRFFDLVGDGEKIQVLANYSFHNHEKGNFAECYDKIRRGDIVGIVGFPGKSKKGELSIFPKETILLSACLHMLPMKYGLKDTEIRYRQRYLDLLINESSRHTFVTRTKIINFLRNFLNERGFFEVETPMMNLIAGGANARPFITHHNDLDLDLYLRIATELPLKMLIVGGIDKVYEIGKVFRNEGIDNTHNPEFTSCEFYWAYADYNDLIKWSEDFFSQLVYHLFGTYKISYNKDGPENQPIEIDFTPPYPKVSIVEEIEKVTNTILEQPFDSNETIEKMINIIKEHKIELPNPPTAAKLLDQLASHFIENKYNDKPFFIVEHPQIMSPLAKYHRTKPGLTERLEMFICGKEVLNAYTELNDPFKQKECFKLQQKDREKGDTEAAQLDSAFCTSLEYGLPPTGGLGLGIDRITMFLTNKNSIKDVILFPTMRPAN

Values are the deposited “Percent Effect”, in %. The record does not define 0% and 100%; most values in the screen are far below 50% and negative numbers occur (in some assays of this library far below -100). Compounds were drawn at random from those tested, without regard to their results. A dash means the value is not listed here; it may have been measured.

Compound	A	B	C	D	E
Cn1cc(C2CCCN2C(=O)CCCOc2ccc(F)cc2)cn1 (configuration not stated)	2.538	0.5848	-17.38	-0.03191	-0.58
CCn1c(N)nc2cc(C(=O)NCc3ccccc3Cl)cnc21	18.22	4.132	-4.302	2.08	3.976
CC(C)(CC(=O)N(CC(N)=O)C1CCCC1)c1ccccc1	-5.159	6.897	3.084	0.3743	10.02
Cn1cc(N2C(=O)CC[C@@H]3[C@H]2CCN3Cc2ccncc2)cn1	-	5.946	3.989	-	-4.319
Cc1cc(C(F)(F)F)nc(N2CCN3CCCC3C2)n1 (configuration not stated)	6.753	1.98	-10.78	-9.858	-5.961
CS(=O)(=O)c1ccc(CNC(=O)NCC2CCOC2)cc1 (configuration not stated)	-33.74	-3.361	-6.636	3.011	5.648
Cc1cc(=O)[nH]c(SC(C)C(=O)N2CCC(NS(C)(=O)=O)CC2)n1 (configuration not stated)	4.248	9.836	-4.695	37.64	4.579
Cc1nc(-c2cnn(C)c2)nc2c1CN(C(=O)c1ccc[nH]1)CC2	12.4	5.882	3.003	4.609	8.039
O=C(Cc1cnn(-c2ccccc2)n1)NC(C1CC1)C1CC1	12.22	5.464	-5.903	0.1504	0.9028
O=C1C[C@H]2CC[C@@H](CN1)N2C(=O)CCCc1ccc(Cl)cc1	-	2.488	-13.76	-	1.746
CCCn1c(C)c(CC(=O)NC)c2c1CC(C)(C)CC2=O	29.2	4.184	-2.35	-32.99	2.583
COc1ccc(-c2cc(C(=O)Nc3nc[nH]n3)[nH]n2)cc1	-50.22	-4	-19.7	9.343	0.01168
O=C(O)C(F)(F)F.[H][C@@]12CN(Cc3cccs3)CCO[C@]1([H])CN(S(=O)(=O)CC)C2	-6.145	-	-	-3.989	-
COc1ccc(CC(C)Nc2cccc(SC)c2)cc1 (configuration not stated)	-37.1	10.05	6.74	6.961	4.216
CC(CC#N)N(C)Cc1ccccc1Cl (configuration not stated)	-14.3	7.027	-6.18	-3.845	-2.915
CN(Cc1cnccn1)C(=O)[C@@]12CNC[C@@H]1CN(Cc1ccccc1)C2	-	2.155	-11.01	-	0.6038
Cc1ccoc1C(=O)N1CC[C@@]2(C[C@H](NS(C)(=O)=O)CCO2)C1	26.13	4.598	-3.631	4.843	7.369
COCc1noc(-c2ccc(N3CCCC3c3nccs3)nc2)n1 (configuration not stated)	-16.73	7.143	-6.147	-7.421	-2.717
COC(=O)N1CC[C@@]2(O)CCCC[C@H]2[C@@H]1c1ccc2c(c1)OCO2	-	4.95	-9.127	-	-5.537
CCOCCCNC(=O)CCSCc1csc(C)n1	10.66	5.946	-2.825	-19.63	1.255
O=C(O)C(F)(F)F.O=C(O)C(F)(F)F.[H][C@]12CCN(C(=O)c3cccs3)C[C@@]1([H])OCCN(CCN(C)C)C2	35.42	-	-	6.832	-
O=C1CC(c2ccc(CO)o2)c2cnn(Cc3ccco3)c2N1 (configuration not stated)	-2.347	5.941	-20.51	0.8086	-3.286
Cc1c(C2CCCN(C(=O)Cc3ccccn3)C2)n2c(nc1=O)CCC2 (configuration not stated)	-	8.108	-2.46	-	1.516
O=C(c1cccc(Cn2ccnc2)c1)N1CCCC(n2ccnc2)C1 (configuration not stated)	46.24	-0.3831	14.5	1.292	8.894
[H][C@@]12CCCC[C@]1(O)CCN(Cc1cc(=O)n3c4c(cccc14)CCC3)C2	34.56	-	-	5.9	-
CCN1CCCC1CN(CCN(C)C)S(=O)(=O)c1ccc(C#N)cc1 (configuration not stated)	31.93	-6.612	-9.553	-0.2189	-4.115
CCOCCCC(=O)N1CCN(C(=O)Cc2cccc(OC)c2)CC1	6.846	2.105	-6.848	-12.49	4.373
CC(=O)NCCNc1nc(C2CCCC2)nc2c1cnn2C	22.11	7.143	-17.73	-26.66	2.718
CC(=O)N[C@@H]1CN(C(=O)c2cc3sccc3[nH]2)C[C@H]1c1ccc(C)o1	3.425	12.66	-10.21	-1.617	5.725
CC(C)NC(=O)N1CCCC2(CC(C(=O)Nc3ccccc3)=NO2)C1 (configuration not stated)	-14.64	6.542	-7.272	-18.05	0.4399
O=C(Nc1ccccc1OCCc1ccccn1)N1CCOCC1	51.44	2.488	-11.81	-6.273	6.179
CC(NC1CCN(CCS(C)(=O)=O)CC1)c1ccc(Cl)cc1 (configuration not stated)	14.89	3.333	-17.54	-2.193	3.145
CCc1nc(C)c(CN2CCN(c3ncnc4scc(C)c34)CC2)[nH]1	-3.854	2.41	-2.808	-11.93	-4.218
Cc1ccc(NC2COC3(CCN(Cc4ccn(C)n4)CC3)C2)nn1.O=C(O)C(F)(F)F (configuration not stated)	8.889	-	-	-2.181	-
CC(C1CC1)N(CC(=O)NC(=O)NC1CC1)C1CC1 (configuration not stated)	30.69	3.448	-4.622	2.245	7.637
O=C(c1c[nH]c2ncccc12)N1CCC(COc2ccccc2)CC1	14.32	3.947	16.46	-3.196	-1.665
Cc1cccc(C(=O)NCc2ccnc(N(C)C)c2)n1	1.5	3.396	-4.275	-3.485	3.759
CS(=O)(=O)C1(C(=O)NC2CCc3nccn3C2)CCCC1 (configuration not stated)	1.804	11.67	1.949	1.512	2.996
[H][C@]12CC[C@]([H])(CN(C(=O)c3ccccn3)C1)N(C(=O)CN1CCOC1=O)C2	10.65	-	-	11.61	-
COc1cccc(CN2CCCC2c2c(C)nn(C)c2C)c1 (configuration not stated)	21.63	9.774	4.54	-	1.553
CC(C)c1noc(CN(CCC2CCCCC2)CC(N)=O)n1	-0.1594	7	0.279	7.069	1.203

For reference, 4 entries once more:

Compound	A	B	C	D	E
CC(CC#N)N(C)Cc1ccccc1Cl (configuration not stated)	-14.3	7.027	-6.18	-3.845	-2.915
[H][C@@]12CCCC[C@]1(O)CCN(Cc1cc(=O)n3c4c(cccc14)CCC3)C2	34.56	-	-	5.9	-
[H][C@]12CC[C@]([H])(CN(C(=O)c3ccccn3)C1)N(C(=O)CN1CCOC1=O)C2	10.65	-	-	11.61	-
CCc1nc(C)c(CN2CCN(c3ncnc4scc(C)c34)CC2)[nH]1	-3.854	2.41	-2.808	-11.93	-4.218

Measurements from “University of Dundee, Small-Polar-MMV Screening Library” (2021), ChEMBL document CHEMBL3988442.